According to paper PMC5520900:
These are yes or no findings as the source states them, for the method shown. In cells and extracts the contact can be indirect. Some binding calls cover weakened binding; strength is not graded here. Tags and fused reporters may be left off the sequences shown.

Target: T1, AKAP121 (mouse) (UniProt O08715)
T1 sequence: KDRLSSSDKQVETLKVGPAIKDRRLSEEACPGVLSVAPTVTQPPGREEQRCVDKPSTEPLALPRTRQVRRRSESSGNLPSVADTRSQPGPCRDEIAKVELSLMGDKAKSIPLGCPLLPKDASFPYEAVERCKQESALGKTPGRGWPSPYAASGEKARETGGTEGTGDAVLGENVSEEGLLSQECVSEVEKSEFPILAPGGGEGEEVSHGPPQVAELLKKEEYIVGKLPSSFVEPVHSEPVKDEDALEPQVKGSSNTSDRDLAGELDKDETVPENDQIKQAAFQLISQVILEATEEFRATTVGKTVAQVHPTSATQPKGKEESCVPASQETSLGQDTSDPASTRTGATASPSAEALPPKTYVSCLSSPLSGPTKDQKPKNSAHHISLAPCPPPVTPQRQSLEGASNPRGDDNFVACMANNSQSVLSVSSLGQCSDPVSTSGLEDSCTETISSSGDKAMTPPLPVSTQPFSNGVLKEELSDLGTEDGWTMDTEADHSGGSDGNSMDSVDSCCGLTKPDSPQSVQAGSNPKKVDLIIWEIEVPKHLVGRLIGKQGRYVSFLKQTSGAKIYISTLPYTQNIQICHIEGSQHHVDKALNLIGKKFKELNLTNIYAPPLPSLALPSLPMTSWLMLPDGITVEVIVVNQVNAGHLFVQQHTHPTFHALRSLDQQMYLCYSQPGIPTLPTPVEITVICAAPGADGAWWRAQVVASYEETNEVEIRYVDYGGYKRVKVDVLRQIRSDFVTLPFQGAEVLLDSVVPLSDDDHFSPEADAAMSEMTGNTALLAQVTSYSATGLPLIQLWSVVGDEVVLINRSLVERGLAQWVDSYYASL
Test: co-IP; HEK293 cells transiently transfected with AKAP121 and sestrin2-flag; untreated or treated with H2O2 (400 uM for 0.5, 1 and 3 h, or 1 h at increasing concentrations); lysis in TBS with 1% Triton X-100, 150 mM NaCl, 50 mM Tris-HCl pH 7.5; immunoprecipitation with anti-AKAP121 antibody, immunoblot

binding: binds
B1: sestrin2-flag (protein, UniProt P58004 1-480)
chain: MIVADSECRAELKDYLRFAPGGVGDSGPGEEQRESRARRGPRGPSAFIPVEEVLREGAESLEQHLGLEALMSSGRVDNLAVVMGLHPDYFTSFWRLHYLLLHTDGPLASSWRHYIAIMAAARHQCSYLVGSHMAEFLQTGGDPEWLLGLHRAPEKLRKLSEINKLLAHRPWLITKEHIQALLKTGEHTWSLAELIQALVLLTHCHSLSSFVFGCGILPEGDADGSPAPQAPTPPSEQSSPPSRDPLNNSGGFESARDVEALMERMQQLQESLLRDEGTSQEEMESRFELEKSESLLVTPSADILEPSPHPDMLCFVEDPTFGYEDFTRRGAQAPPTFRAQDYTWEDHGYSLIQRLYPEGGQLLDEKFQAAYSLTYNTIAMHSGVDTSVLRRAIWNYIHCVFGIRYDDYDYGEVNQLLERNLKVYIKTVACYPEKTTRRMYNLFWRHFRHSEKVHVNLLLLEARMQAALLYALRAITRYMT
